Weaker means in comparison with the reference protein, sequence or condition of that experiment. Tags and fusion partners may be left off the protein sequences shown.
Biological target: T1, OCT2 DBD (POU domain) (Homo sapiens) (UniProt P09086)
T1 sequence (looked up): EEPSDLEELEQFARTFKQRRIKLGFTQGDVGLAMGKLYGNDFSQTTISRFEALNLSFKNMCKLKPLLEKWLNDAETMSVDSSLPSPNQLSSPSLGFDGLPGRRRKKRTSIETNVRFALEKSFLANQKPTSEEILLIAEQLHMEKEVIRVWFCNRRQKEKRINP
Assay: fluorescence anisotropy
Settings: 0.15 M Na+, binding negligible relative to MORE; FP: 5 nM probe, 10 mM Bis-Tris pH 6.5, 0.01% BSA, 0.15-0.35 M NaCl, 25 C overnight, Hill fit with nH = 2 (macroscopic KD of dimer); recombinant protein; residues 195-357; protein details: N-terminal His6 removed by thrombin; label: 5'-HEX

“CTACTTCCGTATACGGAAGTAG (double strand) [scrambled-sequence (off-target) probe, HEX-labelled]”: binds more weakly.
